# Results taken from patent US20060128762A1, “Medicinal composition and method for treating malignant tumor and utilization thereof” (D.Western Therapeutics Institute, priority 2002, published 2006).
# Some entries share one result that the patent states for a list of compounds.
# System: Murine Monocytic Leukemia P388
# Assay: Antitumor effect on P388 murine monocytic leukemia transplanted into mouse (survival)
# Assay type: in vivo
# Conditions: administered alone, on day 1 or 2
# Procedure: Monocytic leukemia cell line P388 was purchased from Japanese Foundation for Cancer Research, Cancer Chemotherapy Center. The cryopreserved tumor was transplanted intraperitoneally into DBA/2 mouse (Japan SLC, Inc.). When the abdominal bloating was observed, ascites was removed and subjected to the test.
# Compound 2 was weighed and ground down in an agate motor. It was then suspended slowly in the motor by adding 0.5% aqueous methylcellulose solution (M.C.) step by step to obtain 10 mg/ml suspension. The suspension was further diluted with M.C. to obtain a normal concentration and stored at 4° C. CDDP was dissolved and diluted with physiological saline. Immediately after preparation, the CDDP solution was subjected to test.
# Male 4-week-old DBA/2 mice (n=10, 2 mice for the present test) and male 4-week-old CDF1 mice (DBA/2×BALB/c) (n=156) were purchased from Japan SLC, Inc., and used six animals per group. Animals were kept in a chamber maintained at room temperature of 21 to 25° C. and humidity of 45-65% with a given lighting time intervals (light period: 7:00 to 19:00; dark period: 19:00 to 7:00) and allowed to access freely to feed (F-2, Funabashi Nojo) and tap water. The animals purchased were used in the test after subjecting to taming and quarantine for 1 week.
# The cryopreserved P388 cell lines were transplanted intraperitoneally into DBA/2 mouse. […]
smiles,measurement,value
"COc1ccc(S(=O)(=O)N(C(C)=O)c2ccccc2/C=C/c2cc[n+]([O-])cc2)cc1 [Compound 2, (E)-4-[2-[2-[N-acetyl-N-[(p-methoxyphenyl)sulfonyl]-amino]phenyl]ethenyl]pyridine 1-oxide]",T/C value,≥ 125%
